# This is one part of the list. Further columns of the screen follow, without active or inactive calls. Most of these compounds were active or inconclusive in the main read-out, so they are no random draw. Words in brackets tell the shape of the fitted curve; partial curves, single points and poor fits give uncertain potencies.
# Test: qHTS Assay for Identifying the Cell-Membrane Permeable IMPase Inhibitors
# Conditions: CHO-M1 cells, IP1 accumulation, HTRF TR-FRET ratio; measured here: donor channel 620 nm AC50
row,Compound,AC50
1,CCSc1nnc(NC(=O)c2ccc3ccccc3n2)s1,"31600 nM [falling, single point]"
2,Fc1ccc(Br)cc1C1C=C(c2ccc(Br)s2)Nc2ncnn21 (stereo not drawn),"25100 nM [rising, partial curve, poor fit]"
3,COc1ccc(/C=N/NC(=O)c2cccc([N+](=O)[O-])c2)cc1OC(=O)c1ccccc1,"79.4 nM [falling, full curve, poor fit]"
4,CCOC(=O)N1CCN(C(=O)C2CCN(C(=O)c3cc4sccc4n3CC)CC2)CC1,"3550 nM [rising, partial curve, poor fit]"
5,O/N=C1/CCSc2ccccc21,"3160 nM [rising, partial curve]"
6,O=C(O)c1cc(S(=O)(=O)N2CCCCCC2)c(Cl)cc1Cl,"79.4 nM [rising, full curve, poor fit]"
7,O=c1nc2s/c(=C\c3ccco3)c(=O)n2nc1Cc1ccc(F)cc1,"25100 nM [falling, partial curve, poor fit]"
8,O=S(=O)(c1ccc(Cl)cc1)N1CCCC1c1nc(-c2cccc(Cl)c2)no1 (stereo not drawn),"200 nM [falling, full curve]"
9,CCOCCCNC(=O)Cn1ncc2c(=O)oc3ccccc3c21,"15800 nM [rising, partial curve]"
10,CCn1c(C)cc2c(c1=O)C(c1ccccc1Br)C(C#N)=C(N)O2 (stereo not drawn),"89.1 nM [falling, full curve, poor fit]"
11,Cc1ccccc1NC(=S)Nc1ccc(Br)cc1,"35500 nM [rising, single point]"
12,Cc1cc(NC(=O)CSc2nc3ccsc3c(=O)n2NC(=O)c2ccccc2)no1,"631 nM [falling, full curve]"
13,COc1ccccc1NC(=O)C1=C(C)Nc2nc(SC)nn2C1c1ccccc1Cl (stereo not drawn),"20 nM [falling, full curve, poor fit]"
14,Cc1cccc(OCc2nc(C#N)c(NCCN(C)C)o2)c1,"44.7 nM [falling, full curve, poor fit]"
15,O=c1cc(N2CCc3ccccc3C2)[nH]c(=O)n1-c1ccc(Cl)cc1,"794 nM [rising, full curve, poor fit]"
16,Cc1ccc2nc(SCCC(=O)O)cc(C)c2c1,"12600 nM [rising, partial curve]"
17,COC(=O)C1=C(N)N(c2ccc(F)cc2)C2=C(C(=O)CCC2)C1c1ccc2c(c1)OCO2 (stereo not drawn),"3.55 nM [falling, full curve, poor fit]"
18,CCN(CC)S(=O)(=O)c1ccc(NC(=O)Cn2c(=O)sc3ccccc32)cc1,"1260 nM [falling, single point]"
19,COCCNC(=O)C(=O)N/N=C/c1ccccc1C(F)(F)F,"1000 nM [falling, full curve]"
20,CCCCCn1c(SCC(=O)OCC)nc2cc(C(=O)N3CCC(C(N)=O)CC3)ccc2c1=O,"50.1 nM [rising, full curve, poor fit]"
21,CC(C)C(=O)NC(c1ccco1)c1c(O)ccc2ccccc12 (stereo not drawn),"3160 nM [rising, full curve]"
22,c1ccc(-c2cc3n(c2)CCc2ccccc2-3)cc1,"15800 nM [falling, single point]"

# Some values from the results shown.
# Under AC50, Cc1ccccc1NC(=S)Nc1ccc(Br)cc1 shows 35500 nM [rising, single point]
# Under AC50, O=c1nc2s/c(=C\c3ccco3)c(=O)n2nc1Cc1ccc(F)cc1 shows 25100 nM [falling, partial curve, poor fit]

# The results go on:

row,Compound,AC50
1,Cc1csc2ncc(C(=O)N3CCCc4ccccc43)c(=O)n12,"56.2 nM [rising, full curve, poor fit]"
2,FC(F)(F)c1cc(-c2ccco2)nc(NCc2ccco2)n1,"126 nM [falling, full curve]"
3,Nc1nnc(COc2ccccc2)s1,"501 nM [falling, full curve]"
4,O=c1c2ccccc2nc2n1CCCS2,"3980 nM [rising, partial curve]"
5,C/C(N)=C(/C#N)C(=O)CSc1nnc(Nc2cccc(C)c2C)s1,"316 nM [falling, full curve]"
6,CCN1CCN(CC(=O)NC2CCCC2)C(=O)C1=O,"3160 nM [rising, single point]"
7,COc1cc2c(c(OC)c1)C(c1cccc(F)c1F)CC(=O)N2 (stereo not drawn),"35500 nM [falling, partial curve, poor fit]"
8,Cc1ccccc1NC(=O)CSc1nnnn1C,"794 nM [rising, full curve, poor fit]"
9,CN(C(=O)c1cccnc1)c1nnc(-c2ccccn2)s1,"10000 nM [falling, partial curve, poor fit]"
10,Cn1ncc(C#N)c1/N=C/N1CCOCC1,"20000 nM [rising, single point]"
11,Cc1ccccc1C(=O)c1cccn1CC(=O)NCC1CCCO1 (stereo not drawn),"1580 nM [falling, full curve]"
12,Cn1c(SCC(=O)NCc2ccc3c(c2)OCO3)nnc1-c1cc2ccccc2cc1O,"316 nM [falling, partial curve, poor fit]"
13,COc1cc(C(=O)O/N=C2/C=CC(=O)C(C)=C2C)cc(OC)c1OC,"501 nM [rising, full curve, poor fit]"
14,COc1ccc(C2c3c(oc4ccccc4c3=O)C(=O)N2c2ccc(C)cn2)cc1OC (stereo not drawn),"2240 nM [rising, partial curve]"
15,CCOC(=O)C(NC(C)=O)(Nc1ccc(S(=O)(=O)Nc2ccncn2)cc1)C(F)(F)F (stereo not drawn),"31600 nM [falling, single point]"
16,Cc1cc(C)n(-c2nncc(-c3ccccc3)n2)n1,"6310 nM [falling, single point]"
17,CNS(=O)(=O)c1cccc(C(=O)OCC(=O)Nc2sc3c(c2C#N)CCCCC3)c1,"3980 nM [rising, single point]"
18,COc1ccc(-n2nc(C(=O)NCC(=O)NCc3ccco3)c3ccccc3c2=O)cc1,"3160 nM [falling, partial curve, poor fit]"
19,O=C(Nc1c(F)cc(F)cc1Br)c1cc(-c2ccco2)on1,"2510 nM [rising, single point]"
20,COC(=O)c1sccc1NC(=O)c1cc2c(s1)CCCC2,"31600 nM [falling, single point]"
21,O=C(Nc1nc2ccccc2n1CCN1CCOCC1)c1cn(-c2ccccc2)nc1-c1ccccc1,"5.01 nM [rising, full curve, poor fit]"

# — PubChem BioAssay AID901 (National Center for Advancing Translational Sciences (NCATS), 2007)
